Results are given in words; binding and its absence hold for the method and conditions named. In cells and extracts the contact can be indirect. These calls come from enrichment with a bait or labelling near it, and not all partners need be listed. Tags and fused reporters may be left off the sequences shown.
B1: Threonyl-tRNA Synthetase (protein, UniProt P26639 1-723)
chain: MFEEKASSPSGKMGGEEKPIGAGEEKQKEGGKKKNKEGSGDGGRAELNPWPEYIYTRLEMYNILKAEHDSILAEKAEKDSKPIKVTLPDGKQVDAESWKTTPYQIACGISQGLADNTVIAKVNNVVWDLDRPLEEDCTLELLKFEDEEAQAVYWHSSAHIMGEAMERVYGGCLCYGPPIENGFYYDMYLEEGGVSSNDFSSLEALCKKIIKEKQAFERLEVKKETLLAMFKYNKFKCRILNEKVNTPTTTVYRCGPLIDLCRGPHVRHTGKIKALKIHKNSSTYWEGKADMETLQRIYGISFPDPKMLKEWEKFQEEAKNRDHRKIGRDQELYFFHELSPGSCFFLPKGAYIYNALIEFIRSEYRKRGFQEVVTPNIFNSRLWMTSGHWQHYSENMFSFEVEKELFALKPMNCPGHCLMFDHRPRSWRELPLRLADFGVLHRNELSGALTGLTRVRRFQQDDAHIFCAMEQIEDEIKGCLDFLRTVYSVFGFSFKLNLSTRPEKFLGDIEVWDQAEKQLENSLNEFGEKWELNSGDGAFYGPKIDIQIKDAIGRYHQCATIQLDFQLPIRFNLTYVSHDGDDKKRPVIVHRAILGSVERMIAILTENYGGKWPFWLSPRQVMVVPVGPTCDEYAQKVRQQFHDAKFMADIDLDPGCTLNKKIRNAQLAQYNFILVVGEKEKISGTVNIRTRDNKVHGERTISETIERLQQLKEFRSKQAEEEF
B2: Asparagine synthetase (protein, UniProt P08243 1-561)
chain: MCGIWALFGSDDCLSVQCLSAMKIAHRGPDAFRFENVNGYTNCCFGFHRLAVVDPLFGMQPIRVKKYPYLWLCYNGEIYNHKKMQQHFEFEYQTKVDGEIILHLYDKGGIEQTICMLDGVFAFVLLDTANKKVFLGRDTYGVRPLFKAMTEDGFLAVCSEAKGLVTLKHSATPFLKVEPFLPGHYEVLDLKPNGKVASVEMVKYHHCRDVPLHALYDNVEKLFPGFEIETVKNNLRILFNNAVKKRLMTDRRIGCLLSGGLDSSLVAATLLKQLKEAQVQYPLQTFAIGMEDSPDLLAARKVADHIGSEHYEVLFNSEEGIQALDEVIFSLETYDITTVRASVGMYLISKYIRKNTDSVVIFSGEGSDELTQGYIYFHKAPSPEKAEEESERLLRELYLFDVLRADRTTAAHGLELRVPFLDHRFSSYYLSLPPEMRIPKNGIEKHLLRETFEDSNLIPKEILWRPKEAFSDGITSVKNSWFKILQEYVEHQVDDAMMANAAQKFPFNTPKTKEGYYYRQVFERHYPGRADWLSHYWMPKWINATDPSARTLTHYKSAVKA
B3: PDHB subunit of pyruvate dehydrogenase (PDC component E1) (protein, UniProt P11177 31-359)
chain: LQVTVRDAINQGMDEELERDEKVFLLGEEVAQYDGAYKVSRGLWKKYGDKRIIDTPISEMGFAGIAVGAAMAGLRPICEFMTFNFSMQAIDQVINSAAKTYYMSGGLQPVPIVFRGPNGASAGVAAQHSQCFAAWYGHCPGLKVVSPWNSEDAKGLIKSAIRDNNPVVVLENELMYGVPFEFPPEAQSKDFLIPIGKAKIERQGTHITVVSHSRPVGHCLEAAAVLSKEGVECEVINMRTIRPMDMETIEASVMKTNHLVTVEGGWPQFGVGAEICARIMEGPAFNFLDAPAVRVTGADVPMPYAKILEDNSIPQVKDIIFAIKKTLNI
B4: dihydrolipoamide acetyltransferase (PDC component E2) (protein, UniProt P10515 87-647)
chain: SLPPHQKVPLPSLSPTMQAGTIARWEKKEGDKINEGDLIAEVETDKATVGFESLEECYMAKILVAEGTRDVPIGAIICITVGKPEDIEAFKNYTLDSSAAPTPQAAPAPTPAATASPPTPSAQAPGSSYPPHMQVLLPALSPTMTMGTVQRWEKKVGEKLSEGDLLAEIETDKATIGFEVQEEGYLAKILVPEGTRDVPLGTPLCIIVEKEADISAFADYRPTEVTDLKPQVPPPTPPPVAAVPPTPQPLAPTPSAPCPATPAGPKGRVFVSPLAKKLAVEKGIDLTQVKGTGPDGRITKKDIDSFVPSKVAPAPAAVVPPTGPGMAPVPTGVFTDIPISNIRRVIAQRLMQSKQTIPHYYLSIDVNMGEVLLVRKELNKILEGRSKISVNDFIIKASALACLKVPEANSSWMDTVIRQNHVVDVSVAVSTPAGLITPIVFNAHIKGVETIANDVVSLATKAREGKLQPHEFQGGTFTISNLGMFGIKNFSAIINPPQACILAIGASEDKLVPADNEKGFDVASMMSVTLSCDHRVVDGAVGAQWLAEFRKYLEKPITMLL
B5: HIRA-interacting protein 3 (protein, UniProt Q9BW71 1-556)
chain: MAREKEMQEFTRSFFRGRPDLSTLTHSIVRRRYLAHSGRSHLEPEEKQALKRLVEEELLKMQVDEAASREDKLDLTKKGKRPPTPCSDPERKRFRFNSESESGSEASSPDYFGPPAKNGVAAEVSPAKEENPRRASKAVEESSDEERQRDLPAQRGEESSEEEEKGYKGKTRKKPVVKKQAPGKASVSRKQAREESEESEAEPVQRTAKKVEGNKGTKSLKESEQESEEEILAQKKEQREEEVEEEEKEEDEEKGDWKPRTRSNGRRKSAREERSCKQKSQAKRLLGDSDSEEEQKEAASSGDDSGRDREPPVQRKSEDRTQLKGGKRLSGSSEDEEDSGKGEPTAKGSRKMARLGSTSGEESDLEREVSDSEAGGGPQGERKNRSSKKSSRKGRTRSSSSSSDGSPEAKGGKAGSGRRGEDHPAVMRLKRYIRACGAHRNYKKLLGSCCSHKERLSILRAELEALGMKGTPSLGKCRALKEQREEAAEVASLDVANIISGSGRPRRRTAWNPLGEAAPPGELYRRTLDSDEERPRPAPPDWSHMRGIISSDGESN
B6: Rap guanine nucleotide exchange factor 2 (protein, UniProt Q9Y4G8 1-1499)
chain: MKPLAIPANHGVMGQQEKHSLPADFTKLHLTDSLHPQVTHVSSSHSGCSITSDSGSSSLSDIYQATESEAGDMDLSGLPETAVDSEDDDDEEDIERASDPLMSRDIVRDCLEKDPIDRTDDDIEQLLEFMHQLPAFANMTMSVRRELCAVMVFAVVERAGTIVLNDGEELDSWSVILNGSVEVTYPDGKAEILCMGNSFGVSPTMDKEYMKGVMRTKVDDCQFVCIAQQDYCRILNQVEKNMQKVEEEGEIVMVKEHRELDRTGTRKGHIVIKGTSERLTMHLVEEHSVVDPTFIEDFLLTYRTFLSSPMEVGKKLLEWFNDPSLRDKVTRVVLLWVNNHFNDFEGDPAMTRFLEEFENNLEREKMGGHLRLLNIACAAKAKRRLMTLTKPSREAPLPFILLGGSEKGFGIFVDSVDSGSKATEAGLKRGDQILEVNGQNFENIQLSKAMEILRNNTHLSITVKTNLFVFKELLTRLSEEKRNGAPHLPKIGDIKKASRYSIPDLAVDVEQVIGLEKVNKKSKANTVGGRNKLKKILDKTRISILPQKPYNDIGIGQSQDDSIVGLRQTKHIPTALPVSGTLSSSNPDLLQSHHRILDFSATPDLPDQVLRVFKADQQSRYIMISKDTTAKEVVIQAIREFAVTATPDQYSLCEVSVTPEGVIKQRRLPDQLSKLADRIQLSGRYYLKNNMETETLCSDEDAQELLRESQISLLQLSTVEVATQLSMRNFELFRNIEPTEYIDDLFKLRSKTSCANLKRFEEVINQETFWVASEILRETNQLKRMKIIKHFIKIALHCRECKNFNSMFAIISGLNLAPVARLRTTWEKLPNKYEKLFQDLQDLFDPSRNMAKYRNVLNSQNLQPPIIPLFPVIKKDLTFLHEGNDSKVDGLVNFEKLRMIAKEIRHVGRMASVNMDPALMFRTRKKKWRSLGSLSQGSTNATVLDVAQTGGHKKRVRRSSFLNAKKLYEDAQMARKVKQYLSNLELEMDEESLQTLSLQCEPATNTLPKNPGDKKPVKSETSPVAPRAGSQQKAQSLPQPQQQPPPAHKINQGLQVPAVSLYPSRKKVPVKDLPPFGINSPQALKKILSLSEEGSLERHKKQAEDTISNASSQLSSPPTSPQSSPRKGYTLAPSGTVDNFSDSGHSEISSRSSIVSNSSFDSVPVSLHDERRQRHSVSIVETNLGMGRMERRTMIEPDQYSLGSYAPMSEGRGLYATATVISSPSTEELSQDQGDRASLDAADSGRGSWTSCSSGSHDNIQTIQHQRSWETLPFGHTHFDYSGDPAGLWASSSHMDQIMFSDHSTKYNRQNQSRESLEQAQSRASWASSTGYWGEDSEGDTGTIKRRGGKDVSIEAESSSLTSVTTEETKPVPMPAHIAVASSTTKGLIARKEGRYREPPPTPPGYIGIPITDFPEGHSHPARKPPDYNVALQRSRMVARSSDTAGPSSVQQPHGHPTSSRPVNKPQWHKPNESDPRLAPYQSQGFSTEEDEDEQVSAV
B7: Dehydrogenase/reductase SDR family member 13 (protein, UniProt Q6UX07 26-377)
chain: PPCGGMGNLRGRTAVVTGANSGIGKMTALELARRGARVVLACRSQERGEAAAFDLRQESGNNEVIFMALDLASLASVRAFATAFLSSEPRLDILIHNAGISSCGRTREAFNLLLRVNHIGPFLLTHLLLPCLKACAPSRVVVVASAAHCRGRLDFKRLDRPVVGWRQELRAYADTKLANVLFARELANQLEATGVTCYAAHPGPVNSELFLRHVPGWLRPLLRPLAWLVLRAPRGGAQTPLYCALQEGIEPLSGRYFANCHVEEVPPAARDDRAAHRLWEASKRLAGLGPGEDAEPDEDPQSEDSEAPSSLSTPHPEEPTVSQPYPSPQSSPDLSKMTHRIQAKVEPEIQLS
B8: Farnesyl-Diphosphate Farnesyltransferase 1 (protein, UniProt P37268 1-417)
chain: MEFVKCLGHPEEFYNLVRFRIGGKRKVMPKMDQDSLSSSLKTCYKYLNQTSRSFAAVIQALDGEMRNAVCIFYLVLRALDTLEDDMTISVEKKVPLLHNFHSFLYQPDWRFMESKEKDRQVLEDFPTISLEFRNLAEKYQTVIADICRRMGIGMAEFLDKHVTSEQEWDKYCHYVAGLVGIGLSRLFSASEFEDPLVGEDTERANSMGLFLQKTNIIRDYLEDQQGGREFWPQEVWSRYVKKLGDFAKPENIDLAVQCLNELITNALHHIPDVITYLSRLRNQSVFNFCAIPQVMAIATLAACYNNQQVFKGAVKIRKGQAVTLMMDATNMPAVKAIIYQYMEEIYHRIPDSDPSSSKTRQIISTIRTQNLPNCQLISRSHYSPIYLSFVMLLAALSWQYLTTLSQVTEDYVQTGEH
B9: 3-hydroxyacyl-CoA dehydrogenase type-2 (protein, UniProt Q99714 1-261)
chain: MAAACRSVKGLVAVITGGASGLGLATAERLVGQGASAVLLDLPNSGGEAQAKKLGNNCVFAPADVTSEKDVQTALALAKGKFGRVDVAVNCAGIAVASKTYNLKKGQTHTLEDFQRVLDVNLMGTFNVIRLVAGEMGQNEPDQGGQRGVIINTASVAAFEGQVGQAAYSASKGGIVGMTLPIARDLAPIGIRVMTIAPGLFGTPLLTSLPEKVCNFLASQVPFPSRLGDPAEYAHLVQAIIENPFLNGEVIRLDGAIRMQP

target: T1, SFB-tagged WWOX (WW domain-containing oxidoreductase) (human) (UniProt Q9NZC7); assay: affinity purification with mass spectrometry; tandem affinity purification from lysate (NETN buffer) of HEK293T cells stably expressing C-terminally SFB-tagged WWOX: streptavidin beads, elution with 2 mg/ml biotin, then S protein beads; LC-MS/MS; two replicates; hits filtered by MUSE interaction score and CRAPome frequency
T1 sequence: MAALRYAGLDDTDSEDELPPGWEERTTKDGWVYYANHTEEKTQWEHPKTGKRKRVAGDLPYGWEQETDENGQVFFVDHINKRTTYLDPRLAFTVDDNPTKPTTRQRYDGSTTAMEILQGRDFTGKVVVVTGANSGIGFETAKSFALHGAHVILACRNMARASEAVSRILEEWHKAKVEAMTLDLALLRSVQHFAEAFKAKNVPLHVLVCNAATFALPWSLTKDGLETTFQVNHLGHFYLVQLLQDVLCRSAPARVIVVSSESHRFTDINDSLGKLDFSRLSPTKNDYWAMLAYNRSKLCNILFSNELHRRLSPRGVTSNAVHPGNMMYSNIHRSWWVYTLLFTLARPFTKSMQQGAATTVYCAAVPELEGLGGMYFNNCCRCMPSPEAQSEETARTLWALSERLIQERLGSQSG

binding, binds:
B1, B2, B3, B4, B5, B6, B7, B8, B9
